Assay results taken from PMC12192239.

Experiments:
[1] = target: GST-GhA01EP1 (GST-GhA01EP1-pGS21T) (upland cotton (Gossypium hirsutum)); test: pull-down; purified ALEU (SCPL35) protein incubated with GST-beads in combination with GST or GhA01EP1 for 4 h; washed three times with TNT Buffer; Western blot; both purified
[2] = target: GhA01EP1-GST (GhA01EP1-GST-p1301S) (upland cotton (Gossypium hirsutum)); test: co-IP; GhA01EP1-GST with ALEU-GFP or SCPL35-GFP expressed in tobacco leaves by Agrobacterium; protein extracted from leaf; Western blot with GST and GFP antibodies

binding [1]	binding [2]	Binder
binds	–	His-TRX-SCPL35 (His-TRX-SCPL35-pET32T) (enzyme, UniProt Q9LEY1 21-480) RKPEKKVTISSSGRKEDDLVTGLPGQPPVNFKHYAGYVNLGPEQKQKALFYWFFEAQQNSSRRPLVLWLNGGPGCSSIAYGAAQELGPFLVHDNGGKLTYNHFSWNKEANMLFLEAPVGVGFSYTNNSMDLQKLGDEVTASDSLAFLINWFMKFPEFRSSEFYISGESYAGHYVPQLAEVIYDRNKKVTKDSSINLKGFMIGNAVINEATDMAGLVDYAWSHAIISDEVHTSIHGSCSFEEDTTNKTEQCYNNFKGFMDAYNDIDIYSIYTPVCLSSLLSSSPRKPKIVVSPRLLTFDDLWDKFPAGYDPCTESYAENYFNRKDVQVALHANVTNLPYPYSPCSGVIKRWSDAPSTMIPIIQKLLTGGLRIWIYSGDTDGRVPVTSTRYSIKKMGLKVESPWRSWFHKSQVAGWVETYAGGLNFVTVRGAGHQVPALAPAQSLTLFSHFISSVPLPSKRF
–	binds	SCPL35-GFP (SCPL35-GFP-p1301S) (enzyme, UniProt Q9LEY1 21-480) RKPEKKVTISSSGRKEDDLVTGLPGQPPVNFKHYAGYVNLGPEQKQKALFYWFFEAQQNSSRRPLVLWLNGGPGCSSIAYGAAQELGPFLVHDNGGKLTYNHFSWNKEANMLFLEAPVGVGFSYTNNSMDLQKLGDEVTASDSLAFLINWFMKFPEFRSSEFYISGESYAGHYVPQLAEVIYDRNKKVTKDSSINLKGFMIGNAVINEATDMAGLVDYAWSHAIISDEVHTSIHGSCSFEEDTTNKTEQCYNNFKGFMDAYNDIDIYSIYTPVCLSSLLSSSPRKPKIVVSPRLLTFDDLWDKFPAGYDPCTESYAENYFNRKDVQVALHANVTNLPYPYSPCSGVIKRWSDAPSTMIPIIQKLLTGGLRIWIYSGDTDGRVPVTSTRYSIKKMGLKVESPWRSWFHKSQVAGWVETYAGGLNFVTVRGAGHQVPALAPAQSLTLFSHFISSVPLPSKRF

No constants are given. Whether binding was seen depends on the method and setting. Binding can be weak; no strength is given. Tags and fused reporters may be left off the sequences shown. For some assays here: In cells and extracts the contact can be indirect.
